In assay [1] the target is GFP-hsCENP-H K234E/L238A (human) (UniProt Q9H3R5). Nature of the assay: co-IP; HeLa Tet-On cells co-transfected with GFP-hsCENP-H (WT or mutants), non-tagged hsCENP-K and MYC-hsCENP-I; anti-GFP antibody beads; lysis buffer with 75 mM NaCl, 0.1% NP-40 and Turbo-nuclease; immunoblot. (In general: Immunoblotting shows a protein as a band on a membrane.)
In assay [2] the target is GFP-hsCENP-H WT (human) (UniProt Q9H3R5). The assay is described as above.

By UniProt entry, the sequences of proteins in these tests, tags left out. Where a name states a change or a piece, a line headed by the entry shows the natural chain unless it says otherwise.
UniProt Q9H3R5: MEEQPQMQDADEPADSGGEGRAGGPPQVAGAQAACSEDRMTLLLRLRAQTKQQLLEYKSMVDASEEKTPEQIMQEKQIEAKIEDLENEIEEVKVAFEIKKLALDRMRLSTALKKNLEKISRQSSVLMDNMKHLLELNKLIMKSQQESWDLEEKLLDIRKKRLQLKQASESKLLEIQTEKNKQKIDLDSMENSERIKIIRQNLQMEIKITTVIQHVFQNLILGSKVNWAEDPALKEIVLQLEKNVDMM
UniProt Q92674: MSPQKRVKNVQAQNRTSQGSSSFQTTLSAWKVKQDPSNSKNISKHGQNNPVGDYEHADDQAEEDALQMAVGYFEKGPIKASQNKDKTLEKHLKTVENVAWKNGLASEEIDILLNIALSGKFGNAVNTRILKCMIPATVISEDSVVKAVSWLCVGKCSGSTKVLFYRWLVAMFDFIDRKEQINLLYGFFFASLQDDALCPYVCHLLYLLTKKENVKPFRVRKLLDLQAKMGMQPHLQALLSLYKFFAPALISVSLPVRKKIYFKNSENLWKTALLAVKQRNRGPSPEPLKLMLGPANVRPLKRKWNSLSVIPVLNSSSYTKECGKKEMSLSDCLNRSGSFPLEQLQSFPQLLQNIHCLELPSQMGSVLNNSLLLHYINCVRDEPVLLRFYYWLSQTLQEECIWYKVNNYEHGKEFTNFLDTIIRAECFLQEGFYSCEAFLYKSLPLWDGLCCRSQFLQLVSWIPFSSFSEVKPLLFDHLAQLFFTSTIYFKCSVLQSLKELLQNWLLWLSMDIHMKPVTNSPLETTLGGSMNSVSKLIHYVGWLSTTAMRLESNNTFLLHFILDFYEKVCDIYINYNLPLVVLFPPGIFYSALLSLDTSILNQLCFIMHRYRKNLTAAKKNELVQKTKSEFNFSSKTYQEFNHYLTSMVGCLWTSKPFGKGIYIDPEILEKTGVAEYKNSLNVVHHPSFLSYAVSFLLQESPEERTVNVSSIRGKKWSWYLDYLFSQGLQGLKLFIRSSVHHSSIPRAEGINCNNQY

Results are given in words; binding and its absence hold for the method and conditions named. Binding seen in cells or lysates may run through a third protein. Some entries that bind do so weakly or less than the wild type.

Take “MYC-hsCENP-I (from UniProt Q92674 1-756)”: the binding result in assay [1] and in assay [2] was “binds” in each case.

The values are drawn from paper PMC6326798.
